Measurements reported in PubChem BioAssay AID1259254 (NCATS, 2017).

Assay: 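Genome-wide screen for genes that prevent DNA re-replication in cancer cells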 (primary screen)
Cells: human HCT116 colorectal cancer cells
Reagents: single siRNA against human genes
Time to read-out: 3 days
Measurement: 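Imaged Hoechst DNA stain sorts each cell into a cycle phase by DNA amount; per plate, G2 fraction set to 0% for non-targeting and 100% for GMNN siRNA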
Direction: G2 robust z-score and G2 cells, % of GMNN control: higher = more G2 cells, more excess DNA replication; raw share of cells in G2: higher = larger share of cells with G2 DNA content
Rule for the call: 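Active siRNAs have a G2 robust z of 5 or more median absolute deviations over the median, which in these data means about 38% or higher of GMNN control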
The whole screen tested about 59,000 reagents; this is a part drawn at random. Over the whole deposit, about 1,550 (2.6%) are marked active. 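G2 share is only a proxy for re-replication; each gene was hit by three separate siRNAs, and active genes were retested.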 The raw values are shown without normalisation. A number with no mark means an inactive call. The numbers tell different reagents against one gene apart. The record does not give: the amount of reagent.

target	reagent no.	G2 robust z-score	G2 cells, % of GMNN control	raw share of cells in G2 (%)
LUC7L3 (LUC7 like 3 pre-mRNA splicing factor)	1	-1.05	-4.43	1.73
LUC7L3 (LUC7 like 3 pre-mRNA splicing factor)	2	-0.3	0.853	3.91
LUC7L3 (LUC7 like 3 pre-mRNA splicing factor)	3	0.675	7.72	7.52
TRIM69 (tripartite motif containing 69)	1	4.03	31.4	20.9
TRIM69 (tripartite motif containing 69)	2	4.28	33.1	16.8
TRIM69 (tripartite motif containing 69)	3	-0.904	-3.39	3.28
CACNA1B (calcium voltage-gated channel subunit alpha1 B)	1	0.811	8.68	8.45
CACNA1B (calcium voltage-gated channel subunit alpha1 B)	2	2.94	23.6	12.8
CACNA1B (calcium voltage-gated channel subunit alpha1 B)	3	0.551	6.84	7.05
ZNF391 (zinc finger protein 391)	1	2.38	19.7	9.88
ZNF391 (zinc finger protein 391)	2	-0.171	1.76	3.78
ZNF391 (zinc finger protein 391)	3	-0.0249	2.79	4.5
ZNF337 (zinc finger protein 337)	1	-0.631	-1.47	2.27
ZNF337 (zinc finger protein 337)	2	1.11	10.8	10.8
ZNF337 (zinc finger protein 337)	3	-0.281	0.992	3.94

Reformatted: results already given
| target | reagent no. | G2 robust z-score | G2 cells, % of GMNN control | raw share of cells in G2 (%) |
| --- | --- | --- | --- | --- |
| TRIM69 (tripartite motif containing 69) | 1 | 4.03 | 31.4 | 20.9 |
| TRIM69 (tripartite motif containing 69) | 2 | 4.28 | 33.1 | 16.8 |
| TRIM69 (tripartite motif containing 69) | 3 | -0.904 | -3.39 | 3.28 |
| CACNA1B (calcium voltage-gated channel subunit alpha1 B) | 1 | 0.811 | 8.68 | 8.45 |

The results go on.
target	reagent no.	G2 robust z-score	G2 cells, % of GMNN control	raw share of cells in G2 (%)
HSF2BP (heat shock transcription factor 2 binding protein)	1	1.26	11.8	9.62
HSF2BP (heat shock transcription factor 2 binding protein)	2	0.0178	3.09	5.41
HSF2BP (heat shock transcription factor 2 binding protein)	3	-0.584	-1.14	2.75
BSPRY (B-box and SPRY domain containing)	1	2.85	23	16.4
BSPRY (B-box and SPRY domain containing)	2	2.47	20.3	11.8
BSPRY (B-box and SPRY domain containing)	3	3.4	26.9	14.1
RAB20 (RAB20, member RAS oncogene family)	1	-0.999	-4.06	2.64
RAB20 (RAB20, member RAS oncogene family)	2	-0.165	1.8	7.22
RAB20 (RAB20, member RAS oncogene family)	3	1.63	14.4	9.61
SPINDOC (spindlin interactor and repressor of chromatin binding)	1	1.17	11.2	7.58
SPINDOC (spindlin interactor and repressor of chromatin binding)	2	2.24	18.7	8.7
SPINDOC (spindlin interactor and repressor of chromatin binding)	3	1.35	12.4	7.41
FDX1 (ferredoxin 1)	1	-0.265	1.11	5.64
FDX1 (ferredoxin 1)	2	1.62	14.4	10.7
FDX1 (ferredoxin 1)	3	-1.08	-4.62	2.01
